Test results taken from PubChem BioAssay AID258 (DTP/NCI, 2004).
The list does not hold the whole screen: it is rich in T/C values a quarter to a half above the control, in often repeated tests (any T/C) and in doses without a T/C. Other doses and runs of a compound stand elsewhere. T/C: endpoint of the treated group in % of that of the vehicle group. Some doses have a count of surviving animals in place of a T/C: the source files T/C as zero there, which appears to mark a toxic dose or a test without result, not a measured value. Some doses without a T/C left all or most animals alive at the check, yet need not have been tolerated: survival well below the control is almost never listed, so the zero probably covers shortened survival too. Counts of survivors are from the toxicity check (mostly the fifth day) where no day follows; animals may have died later. Schedule codes are those of the source, read here as Q, the interval in days (D) or hours (H), X, the number of doses. Some structures stand for samples that the source files as different forms (salt, stereo form or complex); doses refer to the form tested. Some entries hold several experiments; their values stand side by side, smallest first. Some schedules carry Z or #; the key to these is not given. For survival time, this PubChem deposit counts one and a half times the control or more as active, and values a quarter to a half above the control carry no call in these data; other NCI protocols may use other cut-offs. Some T/C values are followed by the survivors on the day toxicity was checked, most often the fifth; without a count, all were alive then.

Tested on: CD2F1 mice, L1210 leukemia sc, survival T/C
Assay: NCI In Vivo Anticancer Drug Screen. Data for tumor model L1210 Leukemia (subcutaneous) in CD2F1 (CDF1) mice
Conditions: T/C endpoint: median survival time, higher T/C = longer survival
Outline: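 Mice with transplanted tumor dosed; survival/tumor size read; T/C vs vehicle controls.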

[1] = dose: 108.0 mg/kg/injection, schedule: Q01DX Z (sc), vehicle: methylcellulose (MC)
[2] = dose: 180.0 mg/kg/injection, schedule: Q01DX Z (sc), vehicle: methylcellulose (MC)
[3] = dose: 500.0 mg/kg/injection, schedule: Q01DX Z (sc), vehicle: methylcellulose (MC)
[4] = dose: 833.0 mg/kg/injection, schedule: Q01DX Z (sc), vehicle: methylcellulose (MC)
[5] = dose: 64.0 mg/kg/injection, schedule: Q01DX009 (sc), vehicle: Klucel (hydroxypropylcellulose) (HPC)

For Nc1ncn(C2OC(CO)C(O)C2O)c(=O)n1 (configuration not stated), the survivor count (dose: 0.2 mg/kg/injection, schedule: Q01DX009 (sc), vehicle: saline) was 3 of 10, the T/C (dose: 0.8 mg/kg/injection, schedule: Q01DX009 (ip), vehicle: saline) was 134 % of control and the T/C (dose: 0.8 mg/kg/injection, schedule: Q01DX009 (sc), vehicle: saline) was 137 % of control. For the same compound, the T/C (dose: 2.1 mg/kg/injection, schedule: Q01DX009 (sc), vehicle: saline) was 138 % of control, the T/C (dose: 2.4 mg/kg/injection, schedule: Q01DX009 (ip), vehicle: saline) was 145 % of control and the T/C (dose: 3.2 mg/kg/injection, schedule: Q01DX009 (ip), vehicle: saline, evaluated on day 30) was 167 and 185 % of control. For the same compound, the T/C (dose: 3.2 mg/kg/injection, schedule: Q01DX009 (ip), vehicle: saline, evaluated on day 45) was 168 and 197 % of control, the T/C (dose: 3.2 mg/kg/injection, schedule: Q01DX009 (sc), vehicle: saline, evaluated on day 30) was 157 and 243 % of control and the T/C (dose: 3.2 mg/kg/injection, schedule: Q01DX009 (sc), vehicle: saline, evaluated on day 45) was 142 and 143 % of control. The T/C (dose: 4.8 mg/kg/injection, schedule: Q01DX009 (ip), vehicle: saline, evaluated on day 30) was 198 % of control, the T/C (dose: 4.8 mg/kg/injection, schedule: Q01DX009 (ip), vehicle: saline, evaluated on day 45) was 92, 216, 244 % of control and the T/C (dose: 4.8 mg/kg/injection, schedule: Q01DX009 (sc), vehicle: saline, evaluated on day 30) was 162 % of control. The T/C (dose: 4.8 mg/kg/injection, schedule: Q01DX009 (sc), vehicle: saline, evaluated on day 45) was 144, 168, 198 % of control, the T/C (dose: 7.2 mg/kg/injection, schedule: Q01DX009 (ip), vehicle: saline) was 142 % of control and the survivor count (dose: 9.6 mg/kg/injection, schedule: Q01DX009 (ip), vehicle: saline) was 10 of 10. The T/C (dose: 9.6 mg/kg/injection, schedule: Q01DX009 (sc), vehicle: saline, evaluated on day 30) was 154 % of control, the T/C (dose: 9.6 mg/kg/injection, schedule: Q01DX009 (sc), vehicle: saline, evaluated on day 45) was 90 and 136 % of control and the T/C (dose: 9.6 mg/kg/injection, schedule: Q01DX009 (sc), vehicle: saline, evaluated on day 60) was 142 % of control. For the same compound, the T/C (dose: 14.4 mg/kg/injection, schedule: Q01DX009 (sc), vehicle: saline, evaluated on day 30) was 129 % of control, the T/C (dose: 14.4 mg/kg/injection, schedule: Q01DX009 (sc), vehicle: saline, evaluated on day 60) was 140 % of control and the T/C (dose: 19.2 mg/kg/injection, schedule: Q01DX009 (sc), vehicle: saline) was 125 % of control.

In the case of Nc1nncs1, the T/C (dose: 180.0 mg/kg/injection, schedule: Q02DX005 (sc), vehicle: water) is reported as 131 % of control and the T/C (dose: 1388.0 mg/kg/injection, schedule: Q04DX003 (sc), vehicle: saline) is reported as 144 % of control.

In the case of CC1CN1CCS(=O)(=O)CCN1CC1C (configuration not stated), the survivor count (dose: 0.28 mg/kg/injection, schedule: Q01DX Z (sc), vehicle: other) is reported as 5 of 8, the survivor count (dose: 0.47 mg/kg/injection, schedule: Q01DX Z (sc), vehicle: other) is reported as 5 of 8 and the survivor count (dose: 0.78 mg/kg/injection, schedule: Q01DX Z (sc), vehicle: other) is reported as 3 of 8. For the same compound, the survivor count (dose: 1.3 mg/kg/injection, schedule: Q01DX Z (sc), vehicle: other) was 5 of 8 and the T/C (dose: 10.0 mg/kg/injection, schedule: Q01DX Z (sc), vehicle: other) was 144 % of control.

For C[C@]12CCC(=O)C=C1CC[C@@H]1[C@@H]2[C@@H](O)C[C@@]2(C)[C@H]1CC[C@]2(O)C(=O)CO, the survivor count [1] was 4 of 10, the survivor count [2] was 3 of 10 and the survivor count [3] was 3 of 10. For the same compound, the survivor count [4] was 5 of 10.

In the case of O=c1n[n+]([O-])ccn1C1OC(CO)C(O)C1O (configuration not stated), the survivor count (dose: 800.0 mg/kg/injection, schedule: Q01DX009 (ip), vehicle: saline) is reported as 1 of 10.

With COc1ccc2c(c1)-c1nn(CCCN(C)C)c3ccc([N+](=O)[O-])c(c13)N2 the T/C (dose: 12.5 mg/kg/injection, schedule: Q01DX009 (ip), vehicle: water) was 125 % of control and the survivor count (dose: 50.0 mg/kg/injection, schedule: Q01DX009 (ip), vehicle: water) was 9 of 10.

In the case of OCC1OC(n2cnc3c(=S)nc[nH]c32)C(O)C1O (configuration not stated), the survivor count (dose: 46.8 mg/kg/injection, schedule: Q01DX Z (sc), vehicle: other) is reported as 6 of 10 and the survivor count (dose: 78.0 mg/kg/injection, schedule: Q01DX Z (sc), vehicle: other) is reported as 6 of 10.

In the case of O=C1c2ccccc2C(=O)c2c(NCCNCCO)ccc(NCCNCCO)c21, the T/C (dose: 4.0 mg/kg/injection, schedule: Q01DX009 (sc), vehicle: Klucel (hydroxypropylcellulose) (HPC)) is reported as 131 % of control, the T/C (dose: 4.0 mg/kg/injection, schedule: Q01DX009 (sc), vehicle: water) is reported as 135 % of control and the T/C (dose: 8.0 mg/kg/injection, schedule: Q01DX009 (ip), vehicle: saline) is reported as 127 % of control. The T/C (dose: 8.0 mg/kg/injection, schedule: Q01DX009 (sc), vehicle: Klucel (hydroxypropylcellulose) (HPC)) was 136 % of control, the T/C (dose: 16.0 mg/kg/injection, schedule: Q01DX009 (ip), vehicle: Klucel (hydroxypropylcellulose) (HPC)) was 136 and 148 % of control and the T/C (dose: 32.0 mg/kg/injection, schedule: Q01DX009 (ip), vehicle: Klucel (hydroxypropylcellulose) (HPC)) was 129 % of control. For the same compound, the T/C (dose: 32.0 mg/kg/injection, schedule: Q01DX009 (sc), vehicle: Klucel (hydroxypropylcellulose) (HPC)) was 136 % of control, the T/C (dose: 64.0 mg/kg/injection, schedule: Q01DX009 (ip), vehicle: Klucel (hydroxypropylcellulose) (HPC)) was 125 % of control [8 of 10 alive] and the T/C (dose: 64.0 mg/kg/injection, schedule: Q01DX009 (ip), vehicle: water) was 125 % of control [9 of 10 alive]. The T/C [5] was 147 % of control, the survivor count [5] was 10 of 10 and the survivor count (dose: 64.0 mg/kg/injection, schedule: Q01DX009 (sc), vehicle: water) was 10 of 10. For the same compound, the survivor count (dose: 128.0 mg/kg/injection, schedule: Q01DX009 (ip), vehicle: saline) was 2 of 6, the survivor count (dose: 128.0 mg/kg/injection, schedule: Q01DX009 (sc), vehicle: Klucel (hydroxypropylcellulose) (HPC)) was 10 of 10 and 6 of 6 and the survivor count (dose: 128.0 mg/kg/injection, schedule: Q01DX009 (sc), vehicle: water) was 10 of 10. The survivor count (dose: 256.0 mg/kg/injection, schedule: Q01DX005 (oral), vehicle: water) was 6 of 10, the survivor count (dose: 512.0 mg/kg/injection, schedule: Q01DX005 (oral), vehicle: Klucel (hydroxypropylcellulose) (HPC)) was 10 of 10 and the survivor count (dose: 512.0 mg/kg/injection, schedule: Q01DX005 (oral), vehicle: water) was 9 of 10.

CCC(=O)O[C@H]1CC[C@H]2[C@@H]3CC[C@H]4CC(=O)[C@H](C)C[C@]4(C)[C@H]3CC[C@]12C was tested, and the survivor count [1] was 0 of 10, the survivor count [2] was 2 of 10 and the survivor count (dose: 300.0 mg/kg/injection, schedule: Q01DX Z (sc), vehicle: methylcellulose (MC)) was 4 of 10. For the same compound, the survivor count [3] was 2 of 10 and the survivor count [4] was 2 of 10.

For COc1cc([C@@H]2c3cc4c(c(O)c3C[C@H]3COC(=O)[C@@H]32)OCO4)cc(OC)c1O, the survivor count (dose: 5.0 mg/kg/injection, schedule: Q01DX Z (sc), vehicle: methylcellulose (MC)) was 0 of 10, the survivor count (dose: 8.4 mg/kg/injection, schedule: Q01DX Z (sc), vehicle: methylcellulose (MC)) was 3 of 10 and the survivor count (dose: 14.0 mg/kg/injection, schedule: Q01DX Z (sc), vehicle: methylcellulose (MC)) was 0 of 10. For the same compound, the survivor count (dose: 23.0 mg/kg/injection, schedule: Q01DX Z (sc), vehicle: methylcellulose (MC)) was 3 of 10, the survivor count (dose: 39.0 mg/kg/injection, schedule: Q01DX Z (sc), vehicle: methylcellulose (MC)) was 2 of 10 and the survivor count (dose: 65.0 mg/kg/injection, schedule: Q01DX Z (sc), vehicle: methylcellulose (MC)) was 1 of 10. For the same compound, the survivor count [1] was 0 of 10.
